Data published in USRE30451E, “Novel process for producing antibiotics bleomycin” (priority 1969, dated 1980).

test system: Ehrlich ascites carcinoma cells; details: higher = less toxic and more effective

Compared with `Cc1c(N)nc([C@H](CC(N)=O)NC[C@H](N)C(N)=O)nc1C(=O)N[C@H](C(=O)N[C@H](C)[C@@H](O)[C@H](C)C(=O)N[C@H](C(=O)NCCc1nc(-c2nc(C(=O)NCCCCN=C(N)N)cs2)cs1)[C@@H](C)O)[C@@H](O[C@@H]1O[C@@H](CO)[C@@H](O)[C@H](O)[C@@H]1O[C@H]1O[C@H](CO)[C@@H](O)[C@H](OC(N)=O)[C@@H]1O)c1cnc[nH]1` [Compound 3, Bleomycin B2, reference compound], `CNCCCNC(=O)c1csc(-c2csc(CCNC(=O)C(NC(=O)C(C)C(O)C(C)NC(=O)C(NC(=O)c3nc(C(CC(N)=O)NCC(N)C(N)=O)nc(N)c3C)C(OC3OC(CO)C(O)C(O)C3OC3OC(CO)C(O)C(OC(N)=O)C3O)c3cnc[nH]3)C(C)O)n2)n1` (centres unmarked) [Compound 17, 3-N-methylaminopropylamino-bleomycin] is higher in “LD50 /ED50 Index” value: 10 for the first, 14 for the second.

Going from `Cc1c(N)nc([C@H](CC(N)=O)NC[C@H](N)C(N)=O)nc1C(=O)N[C@H](C(=O)N[C@H](C)[C@@H](O)[C@H](C)C(=O)N[C@H](C(=O)NCCc1nc(-c2nc(C(=O)NCCCNCCCCN)cs2)cs1)[C@@H](C)O)[C@@H](O[C@@H]1O[C@@H](CO)[C@@H](O)[C@H](O)[C@@H]1O[C@@H]1O[C@H](CO)[C@@H](O)[C@H](OC(N)=O)[C@@H]1O)c1cnc[nH]1` [Compound 7, Bleomycin A5, reference compound] to `Cc1c(N)nc(C(CC(N)=O)NCC(N)C(N)=O)nc1C(=O)NC(C(=O)NC(C)C(O)C(C)C(=O)NC(C(=O)NCCc1nc(-c2nc(C(=O)NCCCNCCCO)cs2)cs1)C(C)O)C(OC1OC(CO)C(O)C(O)C1OC1OC(CO)C(O)C(OC(N)=O)C1O)c1cnc[nH]1` (centres unmarked) [Compound 32, 3-(3-hydroxypropyl)-aminopropylamino-bleomycin], the “LD50 /ED50 Index” value falls from 79 to 30.

Going from `Cc1c(N)nc(C(CC(N)=O)NCC(N)C(N)=O)nc1C(=O)NC(C(=O)NC(C)C(O)C(C)C(=O)NC(C(=O)NCCc1nc(-c2nc(C(=O)NCCN(C)C)cs2)cs1)C(C)O)C(OC1OC(CO)C(O)C(O)C1OC1OC(CO)C(O)C(OC(N)=O)C1O)c1cnc[nH]1` (centres unmarked) [Compound 9, 3-N,N-dimethylaminoethylamino-bleomycin] to `Cc1c(N)nc(C(CC(N)=O)NCC(N)C(N)=O)nc1C(=O)NC(C(=O)NC(C)C(O)C(C)C(=O)NC(C(=O)NCCc1nc(-c2nc(C(=O)NCCCN(C)C)cs2)cs1)C(C)O)C(OC1OC(CO)C(O)C(O)C1OC1OC(CO)C(O)C(OC(N)=O)C1O)c1cnc[nH]1` (centres unmarked) [Compound 19, 3-(N,N-dimethyl)-aminopropylamino-bleomycin], the “LD50 /ED50 Index” value rises from 8 to 20.

Going from `CCN(CC)CCCNC(=O)c1csc(-c2csc(CCNC(=O)C(NC(=O)C(C)C(O)C(C)NC(=O)C(NC(=O)c3nc(C(CC(N)=O)NCC(N)C(N)=O)nc(N)c3C)C(OC3OC(CO)C(O)C(O)C3OC3OC(CO)C(O)C(OC(N)=O)C3O)c3cnc[nH]3)C(C)O)n2)n1` (centres unmarked) [Compound 11, 3,-N,N-diethylaminopropylamino-bleomycin] to `Cc1c(N)nc(C(CC(N)=O)NCC(N)C(N)=O)nc1C(=O)NC(C(=O)NC(C)C(O)C(C)C(=O)NC(C(=O)NCCc1nc(-c2nc(C(=O)NCCCN(C)CCCN)cs2)cs1)C(C)O)C(OC1OC(CO)C(O)C(O)C1OC1OC(CO)C(O)C(OC(N)=O)C1O)c1cnc[nH]1` (centres unmarked) [Compound 22, 3-[N-methyl-N-(3-aminopropyl)]-aminopropylamino-bleomycin], the “LD50 /ED50 Index” value rises from 35 to 48.

First: CCCCNCCCNCCCNC(=O)c1csc(-c2csc(CCNC(=O)C(NC(=O)C(C)C(O)C(C)NC(=O)C(NC(=O)c3nc(C(CC(N)=O)NCC(N)C(N)=O)nc(N)c3C)C(OC3OC(CO)C(O)C(O)C3OC3OC(CO)C(O)C(OC(N)=O)C3O)c3cnc[nH]3)C(C)O)n2)n1 (centres unmarked) [Compound 12, 3-(3-N-butyl-aminopropyl)-aminopropylamino-bleomycin]
Second: COCCCNCCCNC(=O)c1csc(-c2csc(CCNC(=O)C(NC(=O)C(C)C(O)C(C)NC(=O)C(NC(=O)c3nc(C(CC(N)=O)NCC(N)C(N)=O)nc(N)c3C)C(OC3OC(CO)C(O)C(O)C3OC3OC(CO)C(O)C(OC(N)=O)C3O)c3cnc[nH]3)C(C)O)n2)n1 (centres unmarked) [Compound 33, 3-(3-methoxypropyl)-aminopropylaminobleomycin]
The “LD50 /ED50 Index” value of the first is higher: 59 for the first, 39 for the second.

First: Cc1c(N)nc(C(CC(N)=O)NCC(N)C(N)=O)nc1C(=O)NC(C(=O)NC(C)C(O)C(C)C(=O)NC(C(=O)NCCc1nc(-c2nc(C(=O)NCCNCC(C)O)cs2)cs1)C(C)O)C(OC1OC(CO)C(O)C(O)C1OC1OC(CO)C(O)C(OC(N)=O)C1O)c1cnc[nH]1 (centres unmarked) [Compound 13, 2-(2-hydroxypropyl)-aminoethylamino-bleomycin]
Second: Cc1c(N)nc(C(CC(N)=O)NCC(N)C(N)=O)nc1C(=O)NC(C(=O)NC(C)C(O)C(C)C(=O)NC(C(=O)NCCc1nc(-c2nc(C(=O)NCC(C)N)cs2)cs1)C(C)O)C(OC1OC(CO)C(O)C(O)C1OC1OC(CO)C(O)C(OC(N)=O)C1O)c1cnc[nH]1 (centres unmarked) [Compound 16, 2-aminopropylamino-bleomycin]
The “LD50 /ED50 Index” value of the first is higher: 21 for the first, 5 for the second.

Compared with `Cc1c(N)nc(C(CC(N)=O)NCC(N)C(N)=O)nc1C(=O)NC(C(=O)NC(C)C(O)C(C)C(=O)NC(C(=O)NCCc1nc(-c2nc(C(=O)NCCCN3CCNCC3)cs2)cs1)C(C)O)C(OC1OC(CO)C(O)C(O)C1OC1OC(CO)C(O)C(OC(N)=O)C1O)c1cnc[nH]1` (centres unmarked) [Compound 14, 3-(piperazino)propylamino-bleomycin], `Cc1c(N)nc(C(CC(N)=O)NCC(N)C(N)=O)nc1C(=O)NC(C(=O)NC(C)C(O)C(C)C(=O)NC(C(=O)NCCc1nc(-c2nc(C(=O)NCCCN3CCCC3)cs2)cs1)C(C)O)C(OC1OC(CO)C(O)C(O)C1OC1OC(CO)C(O)C(OC(N)=O)C1O)c1cnc[nH]1` (centres unmarked) [Compound 24, 3-(pyrrolidino)-propylamino-bleomycin] is higher in “LD50 /ED50 Index” value: 14 for the first, 19 for the second.

First: Cc1c(N)nc(C(CC(N)=O)NCC(N)C(N)=O)nc1C(=O)NC(C(=O)NC(C)C(O)C(C)C(=O)NC(C(=O)NCCc1nc(-c2nc(C(=O)NCCCNCCCNC(C)c3ccccc3)cs2)cs1)C(C)O)C(OC1OC(CO)C(O)C(O)C1OC1OC(CO)C(O)C(OC(N)=O)C1O)c1cnc[nH]1 (centres unmarked) [Compound 15]
Second: Cc1c(N)nc(C(CC(N)=O)NCC(N)C(N)=O)nc1C(=O)NC(C(=O)NC(C)C(O)C(C)C(=O)NC(C(=O)NCCc1nc(-c2nc(C(=O)NCCCNC(C)c3ccccc3)cs2)cs1)C(C)O)C(OC1OC(CO)C(O)C(O)C1OC1OC(CO)C(O)C(OC(N)=O)C1O)c1cnc[nH]1 (centres unmarked) [Compound 35, 3-(1-phenylethyl)-aminopropyl-amino-bleomycin]
The “LD50 /ED50 Index” value of the first is lower: 34 for the first, 59 for the second.

Going from `Cc1c(N)nc(C(CC(N)=O)NCC(N)C(N)=O)nc1C(=O)NC(C(=O)NC(C)C(O)C(C)C(=O)NC(C(=O)NCCc1nc(-c2nc(C(=O)NCCC[N+](C)(C)C)cs2)cs1)C(C)O)C(OC1OC(CO)C(O)C(O)C1OC1OC(CO)C(O)C(OC(N)=O)C1O)c1cnc[nH]1` (centres unmarked) [Compound 20, 3-(N,N,N-trimethyl)-aminopropylamino-bleomycin] to `Cc1c(N)nc(C(CC(N)=O)NCC(N)C(N)=O)nc1C(=O)NC(C(=O)NC(C)C(O)C(C)C(=O)NC(C(=O)NCCc1nc(-c2nc(C(=O)NCCCNCCCN(C)C)cs2)cs1)C(C)O)C(OC1OC(CO)C(O)C(O)C1OC1OC(CO)C(O)C(OC(N)=O)C1O)c1cnc[nH]1` (centres unmarked) [Compound 21], the “LD50 /ED50 Index” value rises from 35 to 54.

Going from `Cc1c(N)nc(C(CC(N)=O)NCC(N)C(N)=O)nc1C(=O)NC(C(=O)NC(C)C(O)C(C)C(=O)NC(C(=O)NCCc1nc(-c2nc(C(=O)NCCCN3CCCCC3)cs2)cs1)C(C)O)C(OC1OC(CO)C(O)C(O)C1OC1OC(CO)C(O)C(OC(N)=O)C1O)c1cnc[nH]1` (centres unmarked) [Compound 25, 3-(piperidino)-propylamino-bleomycin] to `Cc1c(N)nc(C(CC(N)=O)NCC(N)C(N)=O)nc1C(=O)NC(C(=O)NC(C)C(O)C(C)C(=O)NC(C(=O)NCCc1nc(-c2nc(C(=O)NCCCNCCCN3CCCCC3)cs2)cs1)C(C)O)C(OC1OC(CO)C(O)C(O)C1OC1OC(CO)C(O)C(OC(N)=O)C1O)c1cnc[nH]1` (centres unmarked) [Compound 30, 3-(3-piperidinopropyl)-aminopropylamino-bleomycin], the “LD50 /ED50 Index” value rises from 14 to 17.

Compared with `Cc1c(N)nc(C(CC(N)=O)NCC(N)C(N)=O)nc1C(=O)NC(C(=O)NC(C)C(O)C(C)C(=O)NC(C(=O)NCCc1nc(-c2nc(C(=O)NCCCN3CCOCC3)cs2)cs1)C(C)O)C(OC1OC(CO)C(O)C(O)C1OC1OC(CO)C(O)C(OC(N)=O)C1O)c1cnc[nH]1` (centres unmarked) [Compound 26, 3-(morpholino)-propylamoni-bleomycin], `Cc1c(N)nc(C(CC(N)=O)NCC(N)C(N)=O)nc1C(=O)NC(C(=O)NC(C)C(O)C(C)C(=O)NC(C(=O)NCCc1nc(-c2nc(C(=O)NCCCNCCCN3CCOCC3)cs2)cs1)C(C)O)C(OC1OC(CO)C(O)C(O)C1OC1OC(CO)C(O)C(OC(N)=O)C1O)c1cnc[nH]1` (centres unmarked) [Compound 31, 3-(3-morpholinopropyl)-aminopropylamino-bleomycin] is higher in “LD50 /ED50 Index” value: 18 for the first, 74 for the second.

First: Cc1c(N)nc(C(CC(N)=O)NCC(N)C(N)=O)nc1C(=O)NC(C(=O)NC(C)C(O)C(C)C(=O)NC(C(=O)NCCc1nc(-c2nc(C(=O)NCCCN3CCN(CCCN)CC3)cs2)cs1)C(C)O)C(OC1OC(CO)C(O)C(O)C1OC1OC(CO)C(O)C(OC(N)=O)C1O)c1cnc[nH]1 (centres unmarked) [Compound 28, 3-[1-{4-(3-aminopropyl)}-piperazino]propylamino-bleomycin]
Second: Cc1c(N)nc(C(CC(N)=O)NCC(N)C(N)=O)nc1C(=O)NC(C(=O)NC(C)C(O)C(C)C(=O)NC(C(=O)NCCc1nc(-c2nc(C(=O)NCCCNCCCN3CCCC3)cs2)cs1)C(C)O)C(OC1OC(CO)C(O)C(O)C1OC1OC(CO)C(O)C(OC(N)=O)C1O)c1cnc[nH]1 (centres unmarked) [Compound 29, 3-(3-pyrrolidinopropyl)-aminopropylamino-bleomycin]
The “LD50 /ED50 Index” value of the first is lower: 46 for the first, 62 for the second.

Compared with `Cc1c(N)nc(C(CC(N)=O)NCC(N)C(N)=O)nc1C(=O)NC(C(=O)NC(C)C(O)C(C)C(=O)NC(C(=O)NCCc1nc(-c2nc(C(=O)NCCCNC3CCCCC3)cs2)cs1)C(C)O)C(OC1OC(CO)C(O)C(O)C1OC1OC(CO)C(O)C(OC(N)=O)C1O)c1cnc[nH]1` (centres unmarked) [Compound 38, 3-cyclohexylaminopropylamino-bleomycin], `Cc1c(N)nc(C(CC(N)=O)NCC(N)C(N)=O)nc1C(=O)NC(C(=O)NC(C)C(O)C(C)C(=O)NC(C(=O)NCCc1nc(-c2nc(C(=O)NCCCNCCCNC3CCCCC3)cs2)cs1)C(C)O)C(OC1OC(CO)C(O)C(O)C1OC1OC(CO)C(O)C(OC(N)=O)C1O)c1cnc[nH]1` (centres unmarked) [Compound 39, 3-(3-cyclohexylaminopropyl)-aminopropylamino bleomycin] is higher in “LD50 /ED50 Index” value: 22 for the first, 58 for the second.
